Test results from PMC7862700.
The list shows a part of the results. Construct or isoform of the protein are uncertain.

target: T1, ELF2 (UniProt Q15723); test: DAPPL (digital affinity profiling via proximity ligation, sequencing); conditions: 10 mM Tris-HCl pH 7.5, 50 mM NaCl, 1 mM DTT, 4% glycerol, room temperature, 30 min; GST-TFs on glutathione beads, 16-mer random dsDNA library, 0.1% …; high values mean tight binding; double strand, one strand shown; scale: fold enrichment (6-mer frequency, TF over GST control)
T1 sequence: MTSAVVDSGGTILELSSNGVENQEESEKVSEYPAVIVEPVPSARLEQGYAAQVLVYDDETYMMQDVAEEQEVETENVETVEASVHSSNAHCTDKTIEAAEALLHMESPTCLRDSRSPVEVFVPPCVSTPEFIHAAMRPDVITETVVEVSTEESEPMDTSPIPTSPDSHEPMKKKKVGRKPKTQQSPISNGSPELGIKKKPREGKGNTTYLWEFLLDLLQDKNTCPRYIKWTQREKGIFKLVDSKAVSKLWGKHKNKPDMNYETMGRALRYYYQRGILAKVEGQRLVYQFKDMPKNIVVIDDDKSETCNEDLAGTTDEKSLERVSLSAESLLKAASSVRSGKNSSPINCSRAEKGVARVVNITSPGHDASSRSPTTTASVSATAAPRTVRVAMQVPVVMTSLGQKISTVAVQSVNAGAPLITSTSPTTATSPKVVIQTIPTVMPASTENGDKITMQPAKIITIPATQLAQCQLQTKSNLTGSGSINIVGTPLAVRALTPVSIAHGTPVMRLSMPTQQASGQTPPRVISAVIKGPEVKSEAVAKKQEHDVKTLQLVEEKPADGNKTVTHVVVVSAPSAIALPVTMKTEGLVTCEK

Sequence	binding signal
GCACGA	1.01
ATCTTG	1.24
GGCTTA	1.02
CGAAGT	0.904
TTTCTG	1.33
TGGCTC	1.34
ACGTCT	1.09
ATCCCG	1.53
GGAATA	0.986
AAATCT	1.29
CTCCCT	1.44
TAAGGG	0.924
CCCAGA	0.846
GGGAAA	1.07
TCATCA	1.08
TATCCA	1.3
ATATTC	1.32
TCCAAC	1.13
TAACTT	1.51
TTATAT	1.38

Sequence	binding signal
CCTTAC	1.3
AAGACT	1.09
GTATCC	2.09
TCCATA	1.27
CCCCTC	1.23
CGCGCT	1.17
TGTTTT	1.32
TAGTGT	1.13
TCCAAG	1.06
ACTTGC	1.34
TGGATT	0.974
CTCACG	1.22
GAAGGT	0.885
GACTTT	1.06
AGAACT	0.963
TAAATT	1.22
AGGGAT	0.77
ATTCGG	0.915
CCAATA	1.18
AAAATG	1.18

Reformatted bar-delimited: entries from further up.
Sequence | binding signal
GTATCC | 2.09
TCCATA | 1.27
